Data source: PubChem BioAssay AID1259254 (NCATS, 2017)
Here is an unselected part of about 59,000 reagents. In the full data, about 1,550 (2.6%) got an active call. 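G2 share is only a proxy for re-replication; each gene was hit by three separate siRNAs, and active genes were retested.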 Not all columns of the deposit are shown. Not stated in the record: the amount of reagent.

- Screen: 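Finding genes that stop cells copying their DNA twice in one cycle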 (primary screen)
- System: human HCT116 colorectal cancer cells
- Reagents: single siRNA against human genes
- Timing: 3 days
- Measured: 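Imaged Hoechst DNA stain sorts each cell into a cycle phase by DNA amount; per plate, G2 fraction set to 0% for non-targeting and 100% for GMNN siRNA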
- Scale: G2 robust z-score: higher = more G2 cells, more excess DNA replication
- Call rule: 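An siRNA counts as active if its G2 robust z-score lies at least 5 MADs above the screen median; here such calls match roughly 38% of GMNN control or more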

After knock-down of NHSL2 [SID160764439] the results were G2 robust z-score -0.275; inactive.
Knock-down of NHSL2 [SID160764440] gave: G2 robust z-score 1.87; inactive.
For NHSL2 [SID160764441] the deposit lists G2 robust z-score -0.597; inactive.
With knock-down of NHSL2 [SID160766781] the results were G2 robust z-score 0.205; inactive.
Depletion of NHSL2 [SID160766782] came out at: G2 robust z-score -0.935; inactive.
After knock-down of NHSL2 [SID160766783], the record shows G2 robust z-score -0.88; inactive.
Depletion of CBX3P2 [SID160769449] came out at: G2 robust z-score -0.0485; inactive.
CBX3P2 [SID160769450] scored G2 robust z-score 3.18; inactive.
For CBX3P2 [SID160769452], the values are G2 robust z-score 2.33; inactive.

Entries listed so far whose target name starts with C or c:
CBX3P2 [SID160769449] — G2 robust z-score = -0.0485; outcome = inactive
CBX3P2 [SID160769450] — G2 robust z-score = 3.18; outcome = inactive
CBX3P2 [SID160769452] — G2 robust z-score = 2.33; outcome = inactive

Further records follow.
Depletion of ZNF625 [SID160753750] resulted in: G2 robust z-score 2.33; inactive.
Against ZNF625 [SID160753751], the entry reads G2 robust z-score -0.184; inactive.
With knock-down of ZNF625 [SID160753752], the screen gave G2 robust z-score 0.495; inactive.
For OR51I1 [SID160766351], the entry reads G2 robust z-score -1.25; inactive.
Against OR51I1 [SID160766353], the values are G2 robust z-score 0.201; inactive.
After knock-down of OR51I1 [SID160766354], the record shows G2 robust z-score 0.521; inactive.
With knock-down of SLC23A1 [SID160723559] the results were G2 robust z-score 0.311; inactive.
For SLC23A1 [SID160723560], the entry reads G2 robust z-score 0.658; inactive.
With knock-down of SLC23A1 [SID160723561] the results were G2 robust z-score 0.188; inactive.
With knock-down of NMD3P1 [SID160725425], the record shows G2 robust z-score 2.67; inactive.
NMD3P1 [SID160725426] scored G2 robust z-score 1.62; inactive.
With knock-down of NMD3P1 [SID160767966] the results were G2 robust z-score -0.684; inactive.
Depletion of EXPH5 [SID160735410] came out at: G2 robust z-score 3.28; inactive.
Knock-down of EXPH5 [SID160735411] resulted in: G2 robust z-score 0.452; inactive.
EXPH5 [SID160735415] scored G2 robust z-score -0.636; inactive.
